{
  "source": "patent US11214772B2",
  "about": "“Production method for retinal tissue” (SUMITOMO DAINIPPON PHARMA CO., LTD., priority 2014, dated 2022)",
  "tested_on": "human iPS cells (201B7 strain)",
  "test": "Immunostaining of aggregate frozen sections for retinal tissue markers Chx10 and Rx",
  "assay_type": "cell-based",
  "details": "Example 6; SAG 30 nM, PMA 0.2 μM or Shh 50 ng/ml day 0; BMP4 1.5 nM day 3; day 18",
  "from_the_text": "Cell aggregates on day 18 after the start of suspension culturing were fixed with 4% para-formaldehyde to produce frozen sections. These frozen sections were immunostained for Chx10 (anti-Chx10 antibody, Exalpha, sheep), which is one of the retinal tissue markers, or Rx (anti-Rx antibody, manufactured by TAKARA, guinea pig), which is one of the retinal tissue markers.\nCell aggregates on day 18 after the start of suspension culturing were fixed with 4% para-formaldehyde to produce frozen sections. These frozen sections were immunostained for Chx10 (anti-Chx10 antibody, Exalpha, sheep), which is one of the retinal tissue markers.",
  "note": "Some entries share one result that the patent states for a list of compounds. At least one compound was matched to its structure with a doubt left.",
  "data": [
    {"smiles": "c1ccc2c(Oc3nc(Nc4ccc(N5CCOCC5)cc4)c4ncn(C5CCCCC5)c4n3)cccc2c1", "note": "[PMA, 9-cyclohexyl-N-[4-(4-morpholinyl)phenyl]-2-(l-naphthalenyloxy)-9H-purin-6-amine]", "values": [
      {"measurement": "proportion of Chx10-positive cells in the total cells", "value": "not more than 30%"}
    ]},
    {"smiles": "CNC1CCC(N(Cc2cccc(-c3ccncc3)c2)C(=O)c2sc3ccccc3c2Cl)CC1", "note": "(centres unmarked) [SAG]", "values": [
      {"measurement": "proportion of Chx10-positive cells in the total cells", "value": "not more than 30%"}
    ]}
  ]
}
